Reference: US11292821B2, “Peptides and combination of peptides for use in immunotherapy against lung cancer, including NSCLC, SCLC and other cancers” (Immatics Biotechnologies GmbH, priority 2017, dated 2022)

What follows are substances tested on tumor tissue samples (assay: Identification and relative quantitation of HLA-presented tumor associated peptides by LC-MS (presentation profile)). Conditions: cancer entities on which the tumor-associated peptide was found presented (HLA ligandome LC-MS); abbreviations per table footnote.
Design: species or system human

Substance	Peptide Presentation on cancer entities
3 (YLEKFYGL; listed as Homo sapiens) [compound 3]	HCC
6 (KYKDYFPVI; listed as Homo sapiens) [compound 6]	HCC
9 (RILRFPWQL; listed as Homo sapiens) [compound 9]	MEL
11 (YYSKSVGFMQW; listed as Homo sapiens) [compound 11]	MEL, OC, UEC
13 (HYTYILEVF; listed as Homo sapiens) [compound 13]	GC, UEC
18 (DYIGSVEKW; listed as Homo sapiens) [compound 18]	PRCA
19 (ILKEDPFLF; listed as Homo sapiens) [compound 19]	OC, RCC
21 (SYEVRSTF; listed as Homo sapiens) [compound 21]	CCC, OC, PRCA
22 (TQPGDWTLF; listed as Homo sapiens) [compound 22]	MEL
23 (KFIISDWRF; listed as Homo sapiens) [compound 23]	MEL
24 (MYPDLSELLM; listed as Homo sapiens) [compound 24]	AML, GBM, OC, UEC
28 (YYSIISHTL; listed as Homo sapiens) [compound 28]	HCC
31 (QYQNVLTLW; listed as Homo sapiens) [compound 31]	GBM, GC, HCC, MEL, NHL, PRCA, RCC, UEC
32 (SLPDLTPTF; listed as Homo sapiens) [compound 32]	PRCA
33 (KSSVIASLLF; listed as Homo sapiens) [compound 33]	GBM
34 (MQPRMFFLF; listed as Homo sapiens) [compound 34]	AML, GBM, HCC, MEL, UEC
36 (KQMEDGHTLF; listed as Homo sapiens) [compound 36]	AML, OC
38 (KYTNWKAFL; listed as Homo sapiens) [compound 38]	AML, HCC
41 (VIYFMGAIF; listed as Homo sapiens) [compound 41]	HCC, PRCA, UEC
43 (IQMDEPMAF; listed as Homo sapiens) [compound 43]	AML, MEL, OC
44 (AYLSAVGTF; listed as Homo sapiens) [compound 44]	AML, GC, MEL
47 (KYADYFLEV; listed as Homo sapiens) [compound 47]	GBM, OC, UEC
48 (VFIDHPVHLKF; listed as Homo sapiens) [compound 48]	UEC
50 (SYPELVKMVW; listed as Homo sapiens) [compound 50]	AML, GC, HCC
51 (KYALLLQEL; listed as Homo sapiens) [compound 51]	AML, CLL, GBM, GC, HCC, MEL, OC, PRCA, RCC, UEC
52 (KYMKIFHKF; listed as Homo sapiens) [compound 52]	OC, UEC

Substance	Peptide Presentation on cancer entities
53 (KYITNLEDL; listed as Homo sapiens) [compound 53]	PRCA
54 (LLIKLLQTF; listed as Homo sapiens) [compound 54]	AML, GBM, MEL, OC, PRCA, RCC
55 (RWMDQRLVF; listed as Homo sapiens) [compound 55]	GC, HCC, MEL, UEC
56 (VYMIEPLEL; listed as Homo sapiens) [compound 56]	GBM, NHL
57 (YPSIIQEF; listed as Homo sapiens) [compound 57]	GBM, RCC
58 (QFAAPLRGIYF; listed as Homo sapiens) [compound 58]	GBM, HCC
59 (KYSTTFFMV; listed as Homo sapiens) [compound 59]	GBM
60 (TYLSIFDQL; listed as Homo sapiens) [compound 60]	AML, GC, HCC, OC
61 (NYAENILTL; listed as Homo sapiens) [compound 61]	AML, GBM, GC, MEL
62 (LYQEILAQL; listed as Homo sapiens) [compound 62]	AML, GBM, GC, HCC, MEL, PRCA, RCC
63 (VMPSDSFFF; listed as Homo sapiens) [compound 63]	MEL, NHL, OC, UEC
64 (NYAIFDEGHML; listed as Homo sapiens) [compound 64]	GBM, GC
65 (VYPASKMFPFI; listed as Homo sapiens) [compound 65]	GBM, GC, HCC, MEL, NHL, OC, UEC
66 (IYFRDSSFL; listed as Homo sapiens) [compound 66]	AML, GC, MEL
68 (IYQQIIQTY; listed as Homo sapiens) [compound 68]	GC, MEL, UEC
69 (IMPEKFEFW; listed as Homo sapiens) [compound 69]	AML, GC, MEL, NHL, UEC
70 (PYTNYTFDF; listed as Homo sapiens) [compound 70]	GC, MEL
71 (SYMVLAPVF; listed as Homo sapiens) [compound 71]	MEL
72 (RYEGILYTI; listed as Homo sapiens) [compound 72]	GC, HCC, NHL, PRCA
73 (SYIGLPLTL; listed as Homo sapiens) [compound 73]	GC, HCC, RCC
74 (VYDQYFITL; listed as Homo sapiens) [compound 74]	AML, PRCA
76 (WYGWHFPEL; listed as Homo sapiens) [compound 76]	AML, GC, HCC, RCC, UEC
77 (AYTLLGHEFV; listed as Homo sapiens) [compound 77]	GC, MEL, OC
78 (TWFPKTPMLF; listed as Homo sapiens) [compound 78]	AML, GBM, GC, HCC, MEL, UEC
79 (RYLADLPTL; listed as Homo sapiens) [compound 79]	GC, HCC, OC, UEC
80 (YYSPLRDLL; listed as Homo sapiens) [compound 80]	MEL

Substance	Peptide Presentation on cancer entities
82 (RFLPSPVVI; listed as Homo sapiens) [compound 82]	AML, GC, HCC, MEL, PRCA, UEC
83 (TYCQNIKEF; listed as Homo sapiens) [compound 83]	AML, OC, PRCA, UEC
84: peptide found in MMP12 (gene looked up) (YVDINTFRL; listed as Homo sapiens) [compound 84]	HCC
86 (FVIDGFDEL; listed as Homo sapiens) [compound 86]	CRC, GC, NHL, OSCAR
87 (TLYPYQISQL; listed as Homo sapiens) [compound 87]	HCC, OSCAR
90 (FLLMHPSI; listed as Homo sapiens) [compound 90]	CLL, HCC, RCC
91 (FALPGLLHA; listed as Homo sapiens) [compound 91]	GC, HCC, NHL, OSCAR, RCC
92 (NLRDLLSEV; listed as Homo sapiens) [compound 92]	HCC
93 (TLQEKILQV; listed as Homo sapiens) [compound 93]	CLL, GBM, NHL
95 (ITIGVLARV; listed as Homo sapiens) [compound 95]	CRC, PACA
96 (HLVGGLHTV; listed as Homo sapiens) [compound 96]	AML, BRCA, CRC, GC, MEL, OC, PRCA
97 (VLALVNSTV; listed as Homo sapiens) [compound 97]	CLL
98 (LQSSGLTLLL; listed as Homo sapiens) [compound 98]	GBM, OC, PRCA
99 (FLKEKVPGI; listed as Homo sapiens) [compound 99]	CLL, GC, MEL, NHL
100 (RQYPTPFQL; listed as Homo sapiens) [compound 100]	AML, CLL, CRC, GBM, NHL, OC, RCC
101 (FIISDWRFVL; listed as Homo sapiens) [compound 101]	HNSCC
102 (SLLEQAIAL; listed as Homo sapiens) [compound 102]	GC, HCC, NHL, OC, UEC
103 (FLYYPDPVL; listed as Homo sapiens) [compound 103]	GBC, HCC, MEL, NHL
105 (SLLTHIPTA; listed as Homo sapiens) [compound 105]	AML, CRC, HNSCC, MEL, OC, OSCAR, RCC, UBC, UEC
106 (FIIDTTYPAYV; listed as Homo sapiens) [compound 106]	CRC, OC, OSCAR
107 (LLQGAIESV; listed as Homo sapiens) [compound 107]	BRCA, CLL, CRC, HNSCC, MEL, NHL, UBC, UEC
108 (MIIALSLYI; listed as Homo sapiens) [compound 108]	AML, BRCA
110 (LLADFQALL; listed as Homo sapiens) [compound 110]	RCC
111 (ALCLLLHLL; listed as Homo sapiens) [compound 111]	AML, GBC, HCC, HNSCC, RCC
113 (AVLTGLVEV; listed as Homo sapiens) [compound 113]	BRCA, CLL, CRC, GC, HCC, NHL, OSCAR, RCC, UEC
114 (ILDERQVLL; listed as Homo sapiens) [compound 114]	AML, BRCA, CRC, GBC, GC, HCC, HNSCC, MEL, NHL, OC, OSCAR, PACA, UBC, UEC
